US20080050378A1
Results are given in words; binding and its absence hold for the method and conditions named. Some binding calls cover weakened binding; strength is not graded here. One block for each binder: values may come before it.

Protein sequences, listed by entry. Tags and fused reporters are not part of them. Lines headed by an entry give the natural chain unless they say otherwise; changes in a name come on top.
UniProt Q92847: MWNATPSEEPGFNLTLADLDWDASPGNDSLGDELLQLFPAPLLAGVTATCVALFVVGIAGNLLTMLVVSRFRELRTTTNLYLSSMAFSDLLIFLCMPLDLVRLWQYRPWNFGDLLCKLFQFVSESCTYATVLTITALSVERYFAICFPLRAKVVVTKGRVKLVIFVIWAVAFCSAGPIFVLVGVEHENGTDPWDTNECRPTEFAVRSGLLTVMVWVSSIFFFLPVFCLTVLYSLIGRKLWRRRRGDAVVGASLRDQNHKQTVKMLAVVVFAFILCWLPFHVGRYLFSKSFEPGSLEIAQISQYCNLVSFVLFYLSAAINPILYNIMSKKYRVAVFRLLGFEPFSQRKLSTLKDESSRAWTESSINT

Columns and labels:
[1] = target: FLAG-tagged NTSR1 (neurotensin receptor 1) on COS-7 cells (human) (UniProt P30989); experiment: flow cytometry on transfected COS-7 cells (FIG. 13d)
[2] = target: FLAG-tagged GHSR1b (growth hormone secretagogue receptor 1b) on COS-7 cells (human) (UniProt Q92847); experiment: as above
[3] = target: FLAG-tagged NTSR1 (neurotensin receptor 1) on COS-7 cells (human) (UniProt P30989); experiment: confocal co-localisation on the cell membrane and flow cytometry, transfected COS-7 cells, 0.5 µM labeled peptide
[4] = target: FLAG-tagged GHSR1b (growth hormone secretagogue receptor 1b) on COS-7 cells (human) (UniProt Q92847); experiment: as above
[5] = target: endogenous GHSR1b on NSCLC cells (LC319, PC-14) (human) (UniProt Q92847); experiment: receptor-ligand binding assay on LC319 and PC-14 cells, 8200 Cellular Detection System
[6] = target: endogenous NTSR1 on NSCLC cells (LC319, PC-14) (human) (UniProt P30989); experiment: as above

binding [1]: binds | binding [2]: binds | binding [3]: binds | binding [4]: binds
B1: rhodamine-labeled NMU-25 peptide (NMU-25-rhodamine) (peptide, UniProt P48645 142-166, looked up)
peptide: FRVDEEFQSPFASQSRGYFLFRPRN
modifications: rhodamine label (position not given)

binding [5]: binds | binding [6]: binds
B2: Cy5-labeled NMU-25 (Cy5-NMU-25) (peptide, UniProt P48645 142-166, looked up)
peptide: FRVDEEFQSPFASQSRGYFLFRPRN
modifications: Cy5 label (position not given)
